Experimental findings from PMC11867528 are described below.

No constants are given. Whether binding was seen depends on the method and setting. In cells and extracts the contact can be indirect. Binding can be weak; no strength is given.

Assay [1] concerns the target T1, DDX52 (DExD-box helicase 52) (human (endogenous in Jurkat J6)) (UniProt Q9Y2R4).
T1 sequence: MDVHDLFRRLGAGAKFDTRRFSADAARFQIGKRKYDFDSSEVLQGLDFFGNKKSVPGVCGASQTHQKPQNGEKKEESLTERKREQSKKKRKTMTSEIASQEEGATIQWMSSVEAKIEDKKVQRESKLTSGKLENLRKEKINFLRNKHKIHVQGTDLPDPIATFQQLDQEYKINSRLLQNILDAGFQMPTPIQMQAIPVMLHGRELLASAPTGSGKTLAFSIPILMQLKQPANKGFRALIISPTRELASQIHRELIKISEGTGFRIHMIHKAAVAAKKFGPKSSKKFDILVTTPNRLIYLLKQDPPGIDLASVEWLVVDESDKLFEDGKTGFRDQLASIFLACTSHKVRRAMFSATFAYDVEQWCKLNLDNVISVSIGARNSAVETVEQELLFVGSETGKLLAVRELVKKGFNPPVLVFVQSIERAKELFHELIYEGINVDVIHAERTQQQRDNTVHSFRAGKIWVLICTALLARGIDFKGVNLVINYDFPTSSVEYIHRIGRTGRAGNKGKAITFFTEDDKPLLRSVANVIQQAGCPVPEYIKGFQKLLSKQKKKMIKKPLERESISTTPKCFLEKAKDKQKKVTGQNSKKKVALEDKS
Kind of assay: co-IP; Jurkat J6 cells infected with HIV-1 NL4.3 at 0.5 MOI, harvested 48 hpi; lysates precleared with IgG, primary antibody (DDX52, Vif or A3G) overnight at 4 °C, Agarose A/G beads 4 h; washed thrice with 0.1% NP40 in 1X PBS; immunoblot. (In western blotting, separated proteins are transferred to a membrane and probed.)

In assay [2] the target is HIV-1 viral infectivity factor (Vif) (HIV-1 NL4.3). The description is as above.

On to HIV-1 viral infectivity factor (Vif), for which the binding entry in assay [1] is “binds”.

B1: DDX52 (DExD-box helicase 52) (protein, UniProt Q9Y2R4 1-599)
chain: T1 sequence
As for B1, in assay [2], the binding entry is “binds”.
